# Source: PubChem BioAssay AID1487 (National Center for Advancing Translational Sciences (NCATS), 2009)
# About 25 (0.01%) of roughly 200,000 compounds were called active. Inconclusive results, whose numbers are uncertain, are shown with a selection of clear calls. Calls follow the shape of the dose curve; as a rule, active = well fitted inhibition curve with a large enough effect in the signal ratio, with a control signal flat (not every such curve was filed as active); inconclusive = small, poorly fitted or top-dose-only effect, or effect the other way, or a change in a side signal; inactive = flat fitted curve, though single readings scatter; the % refers to the signal ratio. Where the call is inconclusive, the potency comes from a doubtful curve fit.
# Experiment: qHTS Assay for Modulators of Lamin A Splicing
# Details: HeLa LMNA splicing GFP/RFP minigene ratio, 48 h; ratio change, negative = inhibition: at 46.1 µM (top of the series) unless noted
# Method in brief: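 Read-out is the ratio of GFP to DsRed2 object intensity, acquired by 488 nm laser-scanning cytometry on HeLa lamin A-EGFP minigene reporter cells. Compound incubation 48 hrs at 37 °C in Opti-MEM with 2% FBS; DMSO 0.5% final.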
# % is scaled to controls: 0 for no effect and ±100 for the full control effect; potency is read from the fitted curve at half-maximal effect.
Compound,"ratio change, negative = inhibition",Potency
O=C(NCc1ccc2c(c1)CCN2C(=O)c1ccncc1)c1ccccc1Cl,inactive: -21.8% [at 46 µM],–
O=C(N/N=C/C=C/c1ccco1)c1cccnc1,inactive: 0.684%,–
CCOc1ccc(NC(=O)C2CCN(c3nc4ccccc4[nH]3)CC2)cc1,inconclusive: -0.224% [at 46 µM],–
CC(C)Cc1nc2oc3c(NCC4CCCO4)ncnc3c2c2c1CCC2 (stereo unspecified),inconclusive: -9.92%,–
CCN1CCc2nc3ccccc3c(C(=O)Nc3ccc(C#N)cc3)c2C1,inconclusive: -13.6% [at 46 µM],–
Cc1ccc(/C=N/n2c(C3CCCCC3)n[nH]c2=S)s1,inactive: -9.22%,–
Cc1ccc(S(=O)(=O)Nc2ccc(NC(=O)Nc3cccc(C(F)(F)F)c3)cc2)cc1,–,"inconclusive: 25.1 µM [inhibitor, single point]"
CCOC(=O)C1=C(C)NC(=S)NC1c1ccc(OC(=O)c2ccco2)cc1 (stereo unspecified),inactive: -3.65%,–
COc1ccc(OC)c(CNC(=O)Cn2ncc3c([nH]c4ccc(C)cc43)c2=O)c1,inconclusive: 36.1% [at 46 µM],–
CN(C)c1ccc(C2C3=C(CCCC3=O)OC3=C2C(=O)CCC3)cc1,inactive: -1.87%,–
COCCNC(=S)N1CCC(c2nc(-c3ccc(F)cc3)no2)CC1,inconclusive: 32% [at 46 µM],–
O=C(COc1ccc(S(=O)(=O)N2CCOCC2)cc1)Nc1ccc2c(c1)OCCO2,inactive: -4.44%,–
CCN(CC)CCCNc1cc(-c2ccccc2)nc(C)n1,inactive: 3.28% [at 46 µM],–
CCN1CCN(C(=O)c2ccc3c(c2)N(Cc2cccc(Cl)c2)C(=O)c2ccccc2S3=O)CC1 (stereo unspecified),inconclusive: 12% [at 46 µM],–
C=C(CC)C(=O)c1ccc(OCC(=O)O)c(Cl)c1Cl,–,"inconclusive: 4.47 µM [falling, full curve, poor fit]"
Cc1ccc(S(=O)(=O)Cn2nnnc2C(CC(C)C)N2CCN(C)CC2)cc1 (stereo unspecified),inconclusive: -8.07% [at 46 µM],–
COc1ccccc1CN(Cc1cc2cc(C)ccc2[nH]c1=O)Cc1nnnn1Cc1ccco1,inactive: 8.17%,–
Cc1cccc(-n2c(O)c(C=NC3CCS(=O)(=O)C3)c3ccccc3c2=O)c1 (stereo unspecified),inactive: -8.52%,–
CCc1n[n+](CC(=O)c2ccccc2)c(N)s1,inactive: 7.21% [at 46 µM],–
Cc1cccc(CCNC(=O)c2ccc3c(c2)nc2n3CCC(C)C2)c1 (stereo unspecified),inconclusive: 13.6% [at 46 µM],–
Cc1ccc2cc(CN(C(=O)c3ccco3)c3ccccc3)c(=O)[nH]c2c1,inconclusive: -14%,–

# Copied from the list:
# ratio change, negative = inhibition with O=C(N/N=C/C=C/c1ccco1)c1cccnc1 is entered as inactive: 0.684%
# ratio change, negative = inhibition with Cc1cccc(-n2c(O)c(C=NC3CCS(=O)(=O)C3)c3ccccc3c2=O)c1 (stereo unspecified) is entered as inactive: -8.52%

# Additional structures

Compound,"ratio change, negative = inhibition",Potency
Nc1ccc(S(=O)(=O)NC(=O)c2ccccc2)cc1,–,"inconclusive: 6.31 µM [inhibitor, partial curve, poor fit]"
Cc1ccc(C(C[N+](=O)[O-])c2c(C)[nH]n(-c3ccccc3)c2=O)cc1 (stereo unspecified),inconclusive: 5.65%,–
CN1CCNC(=O)C1CC(=O)NCC1(c2ccccc2)CCCCC1 (stereo unspecified),inconclusive: 6.27% [at 46 µM],–
CC1=C(C(=O)OCCc2ccccc2)C(c2ccsc2)NC(=O)N1C (stereo unspecified),–,"inconclusive: 12.6 µM [fluorescent, single point]"
CC(NC(=O)CNC(=S)N(Cc1cccs1)C1CCCC1)c1ccccc1 (stereo unspecified),inconclusive: 15.3% [at 9.22 µM],–
O=C(NCc1cccnc1)c1ccc(Cl)cc1[N+](=O)[O-],inactive: -4.94%,–
Cn1cc(S(=O)(=O)N2CCCCCC2)cc1C(=O)N1CCN(c2cccc(C(F)(F)F)c2)CC1,inconclusive: -4.78% [at 46 µM],–
CN(C)c1ccc(NC(=O)c2ccc(COc3cccc(Cl)c3)o2)cc1,inconclusive: 10.6%,–
O=C(NC1CCCCC1)c1cc([N+](=O)[O-])[nH]n1,inconclusive: -25.2%,–
O=C(Cc1ccccc1)Nc1cccc(N2C(=O)C=CC2=O)c1,inconclusive: 77%,–
Cc1nnsc1C(=O)N/N=C/c1cccc(C(F)(F)F)c1,inconclusive: -6.74% [at 9.22 µM],–
O=C(Cn1cnc2ccccc21)OCC(=O)N1CCCc2ccccc21,inactive: -0.637%,–
CCCCNc1cc(NC(C)=O)cc2cc(OC)c(OC)cc12,inconclusive: 1.25%,–
O=C(N=Nc1c(O)n(Cc2ccccc2)c2ccccc12)c1cc2ccccc2cc1O,–,"inconclusive: 3.55 µM [fluorescent, full curve]"
CCS(=O)(=O)Nc1ccc(-c2cn3c(C)csc3n2)cc1,inconclusive: -9.04% [at 46 µM],–
Cc1ccc(C2=NN=C(NC(=O)CSc3nc(C)cc(C)n3)SC2)cc1,–,"inconclusive: 35.5 µM [inhibitor, single point]"
COc1ccc(Oc2ncc3nc(-c4cccc(C#N)c4)c(=O)n(CCC#N)c3n2)cc1,inconclusive: -12.8%,–
Cc1ccn2c(C(=O)CSc3ccccc3)c(C)nc2c1,inconclusive: -32.5% [at 46 µM],–
CN(C)Cc1ccccc1-c1nc(N(C)C)c2ccccc2n1,inconclusive: -27.5%,–
Nc1nc(SCC(=O)Nc2ccc(Oc3ccccc3)cc2)n[nH]1,inconclusive: -45.1%,–
